{"source": "PubChem BioAssay AID743454 (Peter MacCallum Cancer Centre, 2014)", "aim": "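Knock-downs lowering viability or raising caspase 3/7 activity in vorinostat-treated resistant cells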 (primary screen)", "system": "human HCT116-VR colon cancer cells, selected for vorinostat resistance", "reagents": "siRNA pool against human genes, 40 nM siRNA pool", "duration": "vorinostat for 24 h, read-out about 72 h after transfection", "conditions": "vorinostat at 2.5 µM final", "detection": "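Two measures, CellTiter-Fluor viability and luminescent caspase 3/7 activity, each as fold change against same-plate mock wells, mean of duplicates, then screen-wide robust z-score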", "scale": "viability robust z-score: higher = more viable cells than screen typical; caspase robust z-score: higher = more caspase 3/7 activity than screen typical", "call rule": "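Hits are knock-downs in viability class RV1/RV2 or caspase class CA1/CA2, excluding ones that killed cells in the no-drug cell-count arm; hits then retested with single siRNAs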", "note": "Shown is one part, drawn at random, of about 18,000 deposited reagents. 450 of all reagents (2.5%) count as active. 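Single biological run; no consistent viability z cut-off exists, so the class columns, not z-scores, define the calls.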"}
{"gene":"TAFA1","viability hit class":"no change","caspase hit class":"no change","viability robust z-score":-0.8,"caspase robust z-score":-0.32,"call":"inactive"}
{"gene":"SPATA33","viability hit class":"no change","caspase hit class":"no change","viability robust z-score":-1.36,"caspase robust z-score":1.64,"call":"inactive"}
{"gene":"NCMAP","viability hit class":"no change","caspase hit class":"no change","viability robust z-score":-0.06,"caspase robust z-score":-0.83,"call":"inactive"}
{"gene":"TTYH1","viability hit class":"no change","caspase hit class":"no change","viability robust z-score":0.48,"caspase robust z-score":-0.18,"call":"inactive"}
{"gene":"LRRN4CL","viability hit class":"no change","caspase hit class":"no change","viability robust z-score":0.92,"caspase robust z-score":-0.54,"call":"inactive"}
{"gene":"TMEM217","viability hit class":"no change","caspase hit class":"no change","viability robust z-score":0.31,"caspase robust z-score":2.34,"call":"inactive"}
{"gene":"CRLF3","viability hit class":"no change","caspase hit class":"no change","viability robust z-score":0.72,"caspase robust z-score":-0.73,"call":"inactive"}
{"gene":"EIF4E3","viability hit class":"no change","caspase hit class":"no change","viability robust z-score":-0.32,"caspase robust z-score":1.1,"call":"inactive"}
{"gene":"PALMD","viability hit class":"no change","caspase hit class":"no change","viability robust z-score":0.24,"caspase robust z-score":0.2,"call":"inactive"}
{"gene":"NPY1R","viability hit class":"no change","caspase hit class":"no change","viability robust z-score":0.42,"caspase robust z-score":-0.4,"call":"inactive"}
{"gene":"IFNL1","viability hit class":"no change","caspase hit class":"no change","viability robust z-score":-0.79,"caspase robust z-score":1.41,"call":"inactive"}
{"gene":"ARID5A","viability hit class":"no change","caspase hit class":"no change","viability robust z-score":-0.48,"caspase robust z-score":1.92,"call":"inactive"}
{"gene":"COBL","viability hit class":"no change","caspase hit class":"no change","viability robust z-score":0.38,"caspase robust z-score":1.86,"call":"inactive"}
{"gene":"ATP6V1E2","viability hit class":"no change","caspase hit class":"no change","viability robust z-score":1.26,"caspase robust z-score":-0.72,"call":"inactive"}
{"gene":"ANP32E","viability hit class":"no change","caspase hit class":"no change","viability robust z-score":0.86,"caspase robust z-score":-0.23,"call":"inactive"}
{"gene":"PAQR3","viability hit class":"no change","caspase hit class":"no change","viability robust z-score":1.62,"caspase robust z-score":-0.38,"call":"inactive"}
{"gene":"RNF222","viability hit class":"no change","caspase hit class":"no change","viability robust z-score":0.5,"caspase robust z-score":0.17,"call":"inactive"}
{"gene":"APOA2","viability hit class":"no change","caspase hit class":"no change","viability robust z-score":-1.12,"caspase robust z-score":3.56,"call":"inactive"}
{"gene":"TCP11L2","viability hit class":"no change","caspase hit class":"no change","viability robust z-score":-0.3,"caspase robust z-score":0.74,"call":"inactive"}
{"gene":"P2RY12","viability hit class":"RV2 (reduced viability)","caspase hit class":"CA2 (caspase activation)","viability robust z-score":-4.65,"caspase robust z-score":5.31,"call":"active"}
{"gene":"PDLIM7","viability hit class":"no change","caspase hit class":"no change","viability robust z-score":0.74,"caspase robust z-score":3.63,"call":"inactive"}
{"gene":"PCOLCE2","viability hit class":"no change","caspase hit class":"CA2 (caspase activation)","viability robust z-score":-1.05,"caspase robust z-score":7.21,"call":"active"}
{"gene":"DOCK6","viability hit class":"no change","caspase hit class":"no change","viability robust z-score":0.2,"caspase robust z-score":0.44,"call":"inactive"}
{"gene":"CRYZL1","viability hit class":"no change","caspase hit class":"no change","viability robust z-score":0.38,"caspase robust z-score":-0.14,"call":"inactive"}
{"gene":"ANKEF1","viability hit class":"no change","caspase hit class":"no change","viability robust z-score":0.6,"caspase robust z-score":1.09,"call":"inactive"}
{"gene":"SLC7A5","viability hit class":"no change","caspase hit class":"no change","viability robust z-score":-1.29,"caspase robust z-score":-0.59,"call":"inactive"}
{"gene":"COG4","viability hit class":"no change","caspase hit class":"no change","viability robust z-score":-0.28,"caspase robust z-score":-0.32,"call":"inactive"}

Entries listed above marked active, once more:
{"gene":"P2RY12","viability hit class":"RV2 (reduced viability)","caspase hit class":"CA2 (caspase activation)","viability robust z-score":-4.65,"caspase robust z-score":5.31,"call":"active"}
{"gene":"PCOLCE2","viability hit class":"no change","caspase hit class":"CA2 (caspase activation)","viability robust z-score":-1.05,"caspase robust z-score":7.21,"call":"active"}
